Laboratory results reported in article PMC9406194.
For part of these data: The exact form of at least one protein or probe is not confirmed. For part of these data: Weaker means in comparison with the reference protein, sequence or condition of that experiment. For part of these data: The direction of at least one scale is not stated here.

Legend:
[1] = biological target: lysozyme (UniProt P00698); experiment: not stated (cited value); details: 5'-NH2-(CH2)6 and 3'-(CH2)6-NH2; amide-linked to hydrogel carboxyl groups; 10 mM phosphate-buffered saline, pH 7.40 (one test at pH 5.00), 1 h immersion; temperature of the binding assay not stated; commercial protein; single-stranded DNA
[2] = biological target: bovine serum albumin (bovine) (UniProt P02769); experiment: 2DPC hydrogel aptasensor (Debye ring); details: DNA-H1-960, 500 uM protein, same limit as blank; 5'-NH2-(CH2)6 and 3'-(CH2)6-NH2; amide-linked to hydrogel carboxyl groups; 10 mM phosphate-buffered saline, pH 7.40 (one test at pH 5.00), 1 h immersion; temperature of the binding assay not stated; commercial protein; single-stranded DNA
[3] = biological target: lysozyme (UniProt P00698); experiment: 2DPC hydrogel aptasensor (Debye ring); details: DNA-H1-960, 500 uM lysozyme, pH 5.00, smaller change than at pH 7.40, attributed to loss of carboxyl charge of the gel; 5'-NH2-(CH2)6 and 3'-(CH2)6-NH2; amide-linked to hydrogel carboxyl groups; 10 mM phosphate-buffered saline, pH 7.40 (one test at pH 5.00), 1 h immersion; temperature of the binding assay not stated; commercial protein; single-stranded DNA

Q: What does the source list for “ATCTACGAATTCATCAGGGCTAAAGAGTGCAGAGTTACTTAG [lysozyme-binding aptamer]”?
A: Kd [1]: 31 nM; binding signal (nm particle spacing decrease) [2]: < 12.7; binding result [3]: binds more weakly
